Assay results taken from patent publication US20090117169A1.
No constants are given. Whether binding was seen depends on the method and setting. Binding seen in cells or lysates may run through a third protein. Some entries that bind do so weakly or less than the wild type.

By UniProt entry, the sequences of proteins in these tests, tags left out. Where a name states a change or a piece, a line headed by the entry shows the natural chain unless it says otherwise. Chains listed by the source or under a name are the forms on record and can include a tag or linker.
endogenous Fat1 in rat aortic smooth muscle cells (RASMCs) (Q9WU10, form named): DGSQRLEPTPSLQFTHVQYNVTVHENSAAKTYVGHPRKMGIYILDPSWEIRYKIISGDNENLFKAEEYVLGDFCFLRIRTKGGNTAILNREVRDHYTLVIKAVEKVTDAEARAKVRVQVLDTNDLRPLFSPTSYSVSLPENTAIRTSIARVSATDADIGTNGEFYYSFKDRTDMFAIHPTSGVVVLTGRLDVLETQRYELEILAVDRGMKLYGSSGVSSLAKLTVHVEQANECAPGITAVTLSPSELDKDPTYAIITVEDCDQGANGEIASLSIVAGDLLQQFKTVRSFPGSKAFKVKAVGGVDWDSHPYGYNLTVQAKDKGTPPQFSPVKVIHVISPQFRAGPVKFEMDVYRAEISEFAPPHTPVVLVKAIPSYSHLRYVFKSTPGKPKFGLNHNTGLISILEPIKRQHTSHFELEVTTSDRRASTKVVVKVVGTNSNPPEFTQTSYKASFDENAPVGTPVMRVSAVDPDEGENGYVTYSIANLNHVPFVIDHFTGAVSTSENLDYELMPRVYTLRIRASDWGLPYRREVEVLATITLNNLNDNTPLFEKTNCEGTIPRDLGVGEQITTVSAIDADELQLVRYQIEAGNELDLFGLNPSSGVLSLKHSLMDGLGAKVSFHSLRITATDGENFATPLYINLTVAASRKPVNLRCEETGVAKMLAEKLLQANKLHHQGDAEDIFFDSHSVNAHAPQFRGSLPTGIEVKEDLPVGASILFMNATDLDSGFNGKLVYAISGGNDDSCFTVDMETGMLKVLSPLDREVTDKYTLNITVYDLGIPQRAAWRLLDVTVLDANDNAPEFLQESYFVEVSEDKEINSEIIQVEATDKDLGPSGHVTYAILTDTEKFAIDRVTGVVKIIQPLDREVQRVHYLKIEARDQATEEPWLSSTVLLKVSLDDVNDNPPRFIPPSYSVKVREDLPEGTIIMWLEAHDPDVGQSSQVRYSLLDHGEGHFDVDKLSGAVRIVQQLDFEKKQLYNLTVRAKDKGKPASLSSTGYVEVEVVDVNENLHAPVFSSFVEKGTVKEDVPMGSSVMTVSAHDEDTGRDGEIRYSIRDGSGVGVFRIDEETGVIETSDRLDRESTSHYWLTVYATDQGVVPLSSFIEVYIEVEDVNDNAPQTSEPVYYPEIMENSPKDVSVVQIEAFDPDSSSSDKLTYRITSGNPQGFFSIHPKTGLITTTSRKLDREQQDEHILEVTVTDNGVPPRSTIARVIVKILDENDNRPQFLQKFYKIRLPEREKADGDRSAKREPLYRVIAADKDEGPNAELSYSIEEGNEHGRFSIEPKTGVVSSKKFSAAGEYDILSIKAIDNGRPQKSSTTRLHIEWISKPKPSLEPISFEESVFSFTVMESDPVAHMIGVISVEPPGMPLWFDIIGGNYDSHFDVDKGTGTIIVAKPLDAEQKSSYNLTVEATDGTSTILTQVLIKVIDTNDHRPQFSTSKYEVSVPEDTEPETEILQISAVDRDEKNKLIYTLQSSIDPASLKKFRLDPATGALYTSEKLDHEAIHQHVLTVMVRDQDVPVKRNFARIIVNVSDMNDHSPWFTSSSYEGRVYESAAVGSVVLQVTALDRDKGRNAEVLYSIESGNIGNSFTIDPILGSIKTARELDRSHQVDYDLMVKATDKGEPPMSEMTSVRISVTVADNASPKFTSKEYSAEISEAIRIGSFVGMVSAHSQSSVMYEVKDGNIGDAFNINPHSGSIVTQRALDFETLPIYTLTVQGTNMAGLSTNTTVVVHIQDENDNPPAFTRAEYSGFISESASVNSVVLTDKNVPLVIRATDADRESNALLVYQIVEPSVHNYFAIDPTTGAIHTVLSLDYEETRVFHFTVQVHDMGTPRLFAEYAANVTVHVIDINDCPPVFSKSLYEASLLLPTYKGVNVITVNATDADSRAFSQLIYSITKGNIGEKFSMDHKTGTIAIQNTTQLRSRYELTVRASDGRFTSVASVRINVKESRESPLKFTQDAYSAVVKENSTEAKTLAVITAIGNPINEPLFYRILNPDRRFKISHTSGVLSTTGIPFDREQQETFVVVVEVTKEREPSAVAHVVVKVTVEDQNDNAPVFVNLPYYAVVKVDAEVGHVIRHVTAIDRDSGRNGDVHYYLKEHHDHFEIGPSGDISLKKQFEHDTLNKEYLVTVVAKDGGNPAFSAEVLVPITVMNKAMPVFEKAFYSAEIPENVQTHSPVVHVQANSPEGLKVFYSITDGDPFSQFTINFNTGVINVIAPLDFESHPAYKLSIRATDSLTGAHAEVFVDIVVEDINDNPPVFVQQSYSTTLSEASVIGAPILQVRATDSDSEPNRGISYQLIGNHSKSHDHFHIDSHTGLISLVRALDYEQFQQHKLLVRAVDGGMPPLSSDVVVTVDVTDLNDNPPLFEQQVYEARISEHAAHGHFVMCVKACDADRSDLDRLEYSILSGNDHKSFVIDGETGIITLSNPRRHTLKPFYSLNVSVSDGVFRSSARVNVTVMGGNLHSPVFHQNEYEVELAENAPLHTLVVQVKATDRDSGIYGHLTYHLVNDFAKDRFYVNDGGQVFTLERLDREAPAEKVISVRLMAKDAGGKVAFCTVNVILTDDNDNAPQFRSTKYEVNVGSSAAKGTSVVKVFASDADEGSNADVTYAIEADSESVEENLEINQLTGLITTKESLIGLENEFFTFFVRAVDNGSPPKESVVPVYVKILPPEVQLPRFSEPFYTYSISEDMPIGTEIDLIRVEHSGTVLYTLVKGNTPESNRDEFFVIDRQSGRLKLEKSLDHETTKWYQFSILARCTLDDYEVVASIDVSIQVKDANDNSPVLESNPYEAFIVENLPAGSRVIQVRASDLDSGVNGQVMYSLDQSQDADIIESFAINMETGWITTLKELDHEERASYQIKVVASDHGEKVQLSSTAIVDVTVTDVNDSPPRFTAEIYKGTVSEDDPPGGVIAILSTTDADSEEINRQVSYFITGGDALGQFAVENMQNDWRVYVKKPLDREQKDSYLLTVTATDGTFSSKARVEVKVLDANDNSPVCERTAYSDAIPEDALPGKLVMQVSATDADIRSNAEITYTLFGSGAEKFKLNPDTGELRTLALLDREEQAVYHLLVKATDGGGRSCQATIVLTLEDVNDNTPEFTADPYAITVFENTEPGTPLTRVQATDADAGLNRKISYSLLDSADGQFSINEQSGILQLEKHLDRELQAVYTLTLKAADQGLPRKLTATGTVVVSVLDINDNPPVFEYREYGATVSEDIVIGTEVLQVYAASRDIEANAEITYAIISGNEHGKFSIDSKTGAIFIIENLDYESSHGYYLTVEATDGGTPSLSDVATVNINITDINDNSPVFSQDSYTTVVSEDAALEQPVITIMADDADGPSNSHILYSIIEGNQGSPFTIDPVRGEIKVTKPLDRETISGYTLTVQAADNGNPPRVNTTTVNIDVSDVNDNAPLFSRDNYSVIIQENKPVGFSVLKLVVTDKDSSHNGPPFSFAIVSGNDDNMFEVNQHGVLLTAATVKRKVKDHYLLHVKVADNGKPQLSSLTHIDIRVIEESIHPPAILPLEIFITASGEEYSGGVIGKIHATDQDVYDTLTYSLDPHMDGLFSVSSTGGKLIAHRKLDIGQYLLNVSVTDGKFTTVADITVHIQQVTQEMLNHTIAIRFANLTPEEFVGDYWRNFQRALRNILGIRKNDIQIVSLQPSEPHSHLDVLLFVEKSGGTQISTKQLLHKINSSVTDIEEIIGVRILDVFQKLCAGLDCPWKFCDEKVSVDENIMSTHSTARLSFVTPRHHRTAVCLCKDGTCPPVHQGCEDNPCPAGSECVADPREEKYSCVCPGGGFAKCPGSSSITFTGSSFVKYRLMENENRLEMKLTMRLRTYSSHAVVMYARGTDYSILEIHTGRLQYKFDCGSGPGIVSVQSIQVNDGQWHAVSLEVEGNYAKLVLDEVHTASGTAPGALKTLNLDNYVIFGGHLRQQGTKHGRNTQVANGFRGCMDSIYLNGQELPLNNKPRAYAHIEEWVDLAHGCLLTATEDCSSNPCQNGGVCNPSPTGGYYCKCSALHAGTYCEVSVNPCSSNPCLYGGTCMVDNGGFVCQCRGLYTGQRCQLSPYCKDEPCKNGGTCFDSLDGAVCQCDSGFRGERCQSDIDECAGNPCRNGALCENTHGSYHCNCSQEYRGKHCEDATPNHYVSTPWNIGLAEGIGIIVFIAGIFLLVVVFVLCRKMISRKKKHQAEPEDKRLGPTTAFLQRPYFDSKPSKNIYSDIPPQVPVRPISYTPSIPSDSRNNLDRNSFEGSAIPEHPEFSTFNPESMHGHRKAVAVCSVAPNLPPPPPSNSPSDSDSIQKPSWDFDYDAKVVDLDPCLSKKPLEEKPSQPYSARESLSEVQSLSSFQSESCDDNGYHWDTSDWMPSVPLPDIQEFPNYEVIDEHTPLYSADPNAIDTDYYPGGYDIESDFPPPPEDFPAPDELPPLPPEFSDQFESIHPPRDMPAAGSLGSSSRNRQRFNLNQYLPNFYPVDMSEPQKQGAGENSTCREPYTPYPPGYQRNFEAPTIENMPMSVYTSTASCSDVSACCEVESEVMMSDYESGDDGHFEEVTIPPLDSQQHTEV

Assays:
[1] = biological target: T1, endogenous β-catenin in rat vascular smooth muscle cells (RASMCs, A7r5) (rat) (UniProt Q9WU82); test: co-immunoprecipitation of endogenous proteins, western blot (FIG. 6C)
T1 sequence (looked up): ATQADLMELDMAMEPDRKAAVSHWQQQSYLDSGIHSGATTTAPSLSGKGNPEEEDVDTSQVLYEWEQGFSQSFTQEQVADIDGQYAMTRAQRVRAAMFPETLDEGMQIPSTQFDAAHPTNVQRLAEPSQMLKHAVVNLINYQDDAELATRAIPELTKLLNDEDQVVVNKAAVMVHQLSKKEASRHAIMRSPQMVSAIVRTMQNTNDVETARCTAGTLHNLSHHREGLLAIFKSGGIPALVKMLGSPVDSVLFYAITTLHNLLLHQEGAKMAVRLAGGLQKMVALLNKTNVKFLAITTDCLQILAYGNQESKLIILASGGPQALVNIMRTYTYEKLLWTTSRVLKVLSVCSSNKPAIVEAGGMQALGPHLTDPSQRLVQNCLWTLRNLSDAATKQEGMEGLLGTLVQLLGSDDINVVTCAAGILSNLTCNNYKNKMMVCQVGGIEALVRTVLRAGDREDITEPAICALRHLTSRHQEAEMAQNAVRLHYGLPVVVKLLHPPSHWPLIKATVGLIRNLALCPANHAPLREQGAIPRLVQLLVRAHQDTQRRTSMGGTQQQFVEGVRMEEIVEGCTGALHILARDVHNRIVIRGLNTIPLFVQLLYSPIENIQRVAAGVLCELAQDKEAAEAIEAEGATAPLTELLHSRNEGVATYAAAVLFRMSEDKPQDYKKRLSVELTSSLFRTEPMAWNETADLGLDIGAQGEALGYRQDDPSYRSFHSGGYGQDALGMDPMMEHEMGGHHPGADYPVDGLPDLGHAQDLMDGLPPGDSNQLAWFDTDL

[2] = biological target: T1, endogenous β-catenin in rat vascular smooth muscle cells (RASMCs, A7r5) (rat); test: reciprocal co-immunoprecipitation of endogenous proteins from RASMC lysates, western blot
[3] = biological target: T1, endogenous β-catenin in rat vascular smooth muscle cells (RASMCs, A7r5) (rat); test: co-immunoprecipitation of endogenous proteins

binding [1]: binds | binding [2]: binds | binding [3]: binds
Substance: endogenous Fat1 in rat aortic smooth muscle cells (RASMCs) (from UniProt Q9WU10 22-4589) (receptor)
